Reference: patent US20190144547A1
No constants are given. Whether binding was seen depends on the method and setting. Some binding calls cover weakened binding; strength is not graded here.

Protein sequences, listed by entry. Tags and fused reporters are not part of them. Lines headed by an entry give the natural chain unless they say otherwise; changes in a name come on top.
UniProt P06756: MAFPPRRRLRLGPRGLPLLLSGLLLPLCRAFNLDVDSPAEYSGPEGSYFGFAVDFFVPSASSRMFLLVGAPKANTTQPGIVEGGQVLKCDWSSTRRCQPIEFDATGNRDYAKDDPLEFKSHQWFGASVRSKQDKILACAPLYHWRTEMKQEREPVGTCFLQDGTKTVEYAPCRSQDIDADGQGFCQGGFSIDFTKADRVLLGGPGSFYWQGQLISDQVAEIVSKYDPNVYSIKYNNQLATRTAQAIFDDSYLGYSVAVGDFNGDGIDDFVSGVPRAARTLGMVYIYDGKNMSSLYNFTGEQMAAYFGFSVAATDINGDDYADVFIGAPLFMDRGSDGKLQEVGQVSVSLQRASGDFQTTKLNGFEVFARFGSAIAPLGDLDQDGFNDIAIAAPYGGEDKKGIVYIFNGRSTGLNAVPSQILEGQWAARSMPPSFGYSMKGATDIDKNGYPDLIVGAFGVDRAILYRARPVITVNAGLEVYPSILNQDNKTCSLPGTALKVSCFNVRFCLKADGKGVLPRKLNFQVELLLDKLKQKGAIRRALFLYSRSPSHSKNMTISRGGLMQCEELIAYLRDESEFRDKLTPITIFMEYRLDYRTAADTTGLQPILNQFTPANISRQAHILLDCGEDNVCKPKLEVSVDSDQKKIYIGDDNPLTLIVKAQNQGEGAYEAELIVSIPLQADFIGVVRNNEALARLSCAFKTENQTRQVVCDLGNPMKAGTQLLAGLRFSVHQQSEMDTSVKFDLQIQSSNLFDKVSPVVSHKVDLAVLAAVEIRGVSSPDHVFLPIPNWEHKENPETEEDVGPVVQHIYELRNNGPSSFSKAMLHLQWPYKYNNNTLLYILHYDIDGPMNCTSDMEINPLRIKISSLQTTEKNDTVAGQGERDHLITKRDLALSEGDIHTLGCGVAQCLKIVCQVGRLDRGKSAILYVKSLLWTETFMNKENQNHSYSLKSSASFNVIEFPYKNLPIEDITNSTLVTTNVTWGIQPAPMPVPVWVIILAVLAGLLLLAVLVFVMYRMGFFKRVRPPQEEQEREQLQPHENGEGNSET
UniProt P18564: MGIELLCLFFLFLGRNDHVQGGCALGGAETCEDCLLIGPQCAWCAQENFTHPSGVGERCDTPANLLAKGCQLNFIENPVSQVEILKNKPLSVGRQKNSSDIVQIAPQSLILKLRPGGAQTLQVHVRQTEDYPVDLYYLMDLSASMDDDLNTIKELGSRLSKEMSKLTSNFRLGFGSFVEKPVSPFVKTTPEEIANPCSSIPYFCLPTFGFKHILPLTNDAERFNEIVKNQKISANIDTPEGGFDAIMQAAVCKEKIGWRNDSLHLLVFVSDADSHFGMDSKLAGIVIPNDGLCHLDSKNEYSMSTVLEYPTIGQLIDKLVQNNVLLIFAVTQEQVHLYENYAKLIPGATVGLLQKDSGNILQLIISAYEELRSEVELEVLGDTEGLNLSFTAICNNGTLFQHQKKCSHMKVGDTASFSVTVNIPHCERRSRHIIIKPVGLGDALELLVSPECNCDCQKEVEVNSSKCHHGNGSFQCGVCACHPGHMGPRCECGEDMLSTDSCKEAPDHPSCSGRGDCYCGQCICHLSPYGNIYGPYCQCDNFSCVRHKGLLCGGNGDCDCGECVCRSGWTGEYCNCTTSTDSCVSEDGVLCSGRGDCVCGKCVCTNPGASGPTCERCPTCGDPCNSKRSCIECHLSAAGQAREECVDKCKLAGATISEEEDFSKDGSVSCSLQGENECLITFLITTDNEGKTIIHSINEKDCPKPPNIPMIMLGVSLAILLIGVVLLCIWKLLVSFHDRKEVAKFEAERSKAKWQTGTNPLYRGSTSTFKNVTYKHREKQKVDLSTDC

How the values were obtained:
[1] = target: T1, recombinant human αvβ6 integrin (human) (UniProt P06756+P18564); assay: competitive binding ELISA, αvβ6 on pre-coated LAP
[2] = target: T1, recombinant human αvβ6 integrin (human); assay: competitive ELISA, antibody titrated against αvβ6 on LAP-coated plate
[3] = target: T1, recombinant human αvβ6 integrin (human); assay: competitive ELISA

binding [1]: binds | binding [2]: binds | binding [3]: binds
B1: anti-αv integrin antibody DI17E6 (Abituzumab) (antibody, V domains shown)
VH: QVQLQQSGGELAKPGASVKVSCKASGYTFSSFWMHWVRQAPGQGLEWIGYINPRSGYTEYNEIFRDKATMTTDTSTSTAYMELSSLRSEDTAVYYCASFLGRGAMDYWGQGTTVTVSS
VL: DIQMTQSPSSLSASVGDRVTITCRASQDISNYLAWYQQKPGKAPKLLIYYTSKIHSGVPSRFSGSGSGTDYTFTISSLQPEDIATYYCQQGNTFPYTFGQGTKVEIKR
